# From PubChem BioAssay AID2685 (National Center for Advancing Translational Sciences (NCATS), 2010)
# About 2,100 (0.66%) of roughly 320,000 compounds were called active. Inconclusive means that the source gave no clear call. Such entries were picked first, then a sample of the others. Calls come from the whole dose curve; as a rule, active = well fitted inhibition curve with a large enough effect in the signal ratio, with a control signal flat (not every such curve was filed as active); inconclusive = small, poorly fitted or top-dose-only effect, or effect the other way, or a change in a side signal; inactive = flat fitted curve, though single readings scatter; the % refers to the signal ratio. A potency beside an inconclusive call is a rough fit, not a confirmed value.
# Test: qHTS Assay for Lipid Storage Modulators in Drosophila S3 Cells
# Details: BODIPY lipid droplet fluorescence, 18-24 h, cells fed with added oleic acid; lipid storage change, negative = inhibition: at 46.1 µM (top of the series) unless noted
# How it was run: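 Laser-scanning cytometry quantifies lipid droplet accumulation (500–530 nm total intensity; droplet/cell object ratio) in oleic acid-fed (400 uM added) Drosophila S3 cells treated with a concentration series. 20 uM Triacsin C defined 100% inhibition.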
# % is set by controls: 0 for no effect and ±100 for the full control effect; potency is the fitted concentration of half-maximal effect.
Structure (SMILES),"lipid storage change, negative = inhibition",Potency
CCN1CCN(CCCN(Cc2ccco2)C(=S)Nc2ccc(Cl)cc2)CC1,inconclusive: 34.6%,
CN1CCN(c2ccc(NC(=O)COc3ccc(Cl)cc3Cl)cc2)CC1,inconclusive: -51%,
O=C(COC(=O)c1n[nH]c2ccccc12)Nc1ccccc1,inconclusive: 24.5%,
c1ccc(OCCOc2cccc3cccnc23)cc1,inconclusive: 6.25%,
O=S1(=O)CCC(n2nccc2-c2ccccc2)C1 (configuration not stated),inconclusive: -9.11%,
COc1ccc(/C(O)=C2/C(=O)C(=O)N(c3ccccn3)C2c2ccc(OC)c(OC)c2)cc1 (configuration not stated),inconclusive: -3.12%,
O=c1[nH]c(CSc2nc3ccccc3[nH]2)nc2c1cnn2-c1ccccc1,,"inconclusive: 16.4 µM [falling, single point]"
CN(CCNC(=O)Cn1c(=O)sc2ccccc21)Cc1ccccc1,inconclusive: 47.1% [activator],
CCOC(=O)c1c(NC(=O)CN2C(=O)NC3(CCCCC3C)C2=O)sc(C(=O)N(C)C)c1C (configuration not stated),,"inconclusive: 0.92 µM [activator, full curve]"
CC(C)c1ccccc1OCCNC(=O)c1cccnc1,inconclusive: 18.5%,
CCC(=O)N/C=C/n1cnc2cc(C(F)(F)F)ccc21,inconclusive: 17.9%,
COc1ccc(CNC(=O)CCNS(=O)(=O)c2ccc(Br)s2)cc1,,"inconclusive: 29.1 µM [activator, single point]"
CCn1cc(-c2cc(C(F)(F)F)n3nc(C(=O)O)cc3n2)c(C)n1,,"inconclusive: 3.26 µM [activator, single point]"
CC1CCN(C(=O)COC(=O)C23CC4CC(CC(O)(C4)C2)C3)CC1,inconclusive: 8.05%,
O=C(COc1ccc(S(=O)(=O)N2CCOCC2)cc1)N1CCN(c2ccccc2)CC1,,"inconclusive: 0.103 µM [falling, full curve, poor fit]"
CN1CCSc2ccc(C(=O)NCc3ccccc3)cc21,inconclusive: 44.7%,
CCOC(=O)N1CCN(C(=O)CN(C)S(=O)(=O)c2ccc(OC)c(OC)c2)CC1,inconclusive: 20.4%,
CC(C)(C)CC(=O)N[C@@H](Cc1ccccc1)c1nc2ccccc2[nH]1,,"inconclusive: 6.51 µM [falling, single point]"
CCn1c(SCC(=O)N2CCN(c3ccc(F)cc3)CC2)nc2ccccc2c1=O,,"inconclusive: 0.82 µM [activator, full curve]"
COc1ccc(-n2c(=O)c3ccccc3n(CC(=O)NCc3ccco3)c2=O)cc1,inconclusive: -0.558%,
Cc1cccc(NS(=O)(=O)c2ccc3nc(-c4ccccc4)[nH]c3c2)c1C,,"inconclusive: 29.1 µM [falling, single point]"
COC(=O)[C@@]12CCCN1[C@H](c1ccc(SC3CCCCC3)cc1)[C@H]1C(=O)N(C)C(=O)[C@H]12,inconclusive: -38.9%,
Cc1ccccc1-c1ocnc1C(=O)Nc1ccccc1NC(=O)c1ccccn1,inconclusive: -66.9%,
Cc1ccc2oc(-c3ccc(C)c(NC(=O)Cc4cccs4)c3)nc2c1,inconclusive: -9.01%,

# Taken from above.
# Value for CCOC(=O)N1CCN(C(=O)CN(C)S(=O)(=O)c2ccc(OC)c(OC)c2)CC1 under lipid storage change, negative = inhibition: inconclusive: 20.4%
# Value for CCN1CCN(CCCN(Cc2ccco2)C(=S)Nc2ccc(Cl)cc2)CC1 under lipid storage change, negative = inhibition: inconclusive: 34.6%
# Value for CCC(=O)N/C=C/n1cnc2cc(C(F)(F)F)ccc21 under lipid storage change, negative = inhibition: inconclusive: 17.9%

# (list continues)

Structure (SMILES),"lipid storage change, negative = inhibition",Potency
O=C(Nc1ccc(S(=O)(=O)Nc2nccs2)cc1)C1CC(=O)N(c2ccccc2)C1 (configuration not stated),inconclusive: 65.6%,
CC1Cc2cc(S(=O)(=O)N3CCN(C)CC3)ccc2N1C(=O)C1CC1 (configuration not stated),,"inconclusive: 13 µM [activator, partial curve]"
O=C(CSc1ccc(F)cc1)NCC1(N2CCOCC2)CCCCC1,,"inconclusive: 29.1 µM [falling, single point]"
CCCn1nnc2sc3c(c2c1=O)CCC(C)C3 (configuration not stated),inconclusive: 0.867%,
Cc1cc(C)cc(C(=O)OCC(=O)N2CCCCCC2)c1,inactive: 0.176%,
CCCc1cc(=O)[nH]c(SCc2nc3ccc([N+](=O)[O-])cc3[nH]2)n1,inconclusive: -6.55%,
CCCc1cc(=O)oc2c(C)c(OCC(=O)N3C[C@H]4C[C@@H](C3)c3cccc(=O)n3C4)ccc12,inconclusive: -35.9%,
O=C(Nc1ccc(F)cc1F)c1cccc(C(=O)Nc2ccc(F)cc2F)n1,,"inconclusive: 29.1 µM [activator, single point]"
Cc1ccc(C(=O)Nc2ccccc2C(=O)O)cc1NC(=O)COc1c(C)cccc1C,,"inconclusive: 29.1 µM [falling, single point]"
O=S(=O)(NCc1ccccc1F)NCc1ccccc1F,inconclusive: 5.28%,
COc1ccc(S(=O)(=O)NCCc2csc(-c3cccnc3)n2)cc1,inconclusive: 4.5%,
O=C1CC(N2CCN(c3ccc(Cl)cc3)CC2)C(=O)N1c1ccc(F)cc1 (configuration not stated),,"inconclusive: 6.51 µM [activator, single point]"
Cc1ccc(C(=O)Nc2cc(C(F)(F)F)ccc2-n2cncn2)o1,,"inconclusive: 29.1 µM [activator, single point]"
C/C=C/C=[N+](\[O-])C(C)/C(=N/O)c1ccc(F)cc1 (configuration not stated),inconclusive: -9.74%,
COc1ccc(C2CC(c3cccs3)=NN2C(=O)CCC(=O)O)cc1OC (configuration not stated),inconclusive: 21.1%,
CCCCN(CC)CCNC(=O)c1ccc2c(Cl)c3c(nc2c1)CCC3,inconclusive: 6.13%,
O=C1NN(c2ccc(Br)cc2)C(=O)/C1=C\c1ccc(O)cc1O,inconclusive: 41.1%,
Cc1onc(-c2ccccc2Cl)c1C(=O)OCC(=O)Nc1ccc2c(c1)OCO2,inconclusive: 87.8%,
COc1cccc(CC(=O)Nc2cc(C(F)(F)F)ccc2N2CCCC2)c1,inconclusive: -6.11%,
O=S(=O)(c1cccc(-c2cn3cccnc3n2)c1)N1CCCCCC1,,"inconclusive: 2.59 µM [activator, partial curve]"
CCn1c2ccccc2c2cc(NC(=O)COc3ccc(OC)cc3)ccc21,,"inconclusive: 20.6 µM [falling, single point]"
O=C(NNC1CC(=O)N(c2cccc(Cl)c2)C1=O)c1cccs1 (configuration not stated),,"inconclusive: 14.6 µM [activator, partial curve, poor fit]"
CCOC(=O)n1cc(-c2cnc(CNC(=O)C(C)(c3ccccc3)c3ccccc3)o2)c2ccccc21,inconclusive: -2.93%,
